Assay results: patent US20190023809A1, “ANTI-NICOTINAMIDE PHOSPHORIBOSYLTRANSFERASE ANTIBODY GENES AND METHODS OF USE THEREOF” (The Children's Mercy Hospital, priority 2015, published 2019)
No constants are given. Whether binding was seen depends on the method and setting. Some binding calls cover weakened binding; strength is not graded here.

Sequences of proteins named here, by UniProt entry; tags and fusion partners are left off.
UniProt Q99KQ4: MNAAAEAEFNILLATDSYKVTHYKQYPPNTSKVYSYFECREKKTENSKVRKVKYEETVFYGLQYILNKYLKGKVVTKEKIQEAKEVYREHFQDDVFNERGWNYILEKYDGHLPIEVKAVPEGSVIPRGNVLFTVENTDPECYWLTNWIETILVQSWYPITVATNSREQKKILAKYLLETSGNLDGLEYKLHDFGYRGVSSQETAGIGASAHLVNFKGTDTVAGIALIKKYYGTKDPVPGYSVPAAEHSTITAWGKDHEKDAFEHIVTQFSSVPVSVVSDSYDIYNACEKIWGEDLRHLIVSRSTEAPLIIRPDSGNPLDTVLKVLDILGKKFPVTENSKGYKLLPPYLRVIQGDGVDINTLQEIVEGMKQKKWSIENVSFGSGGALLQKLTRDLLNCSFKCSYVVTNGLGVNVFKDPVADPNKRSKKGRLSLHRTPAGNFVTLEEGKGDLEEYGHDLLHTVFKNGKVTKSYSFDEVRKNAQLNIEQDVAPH

How the values were obtained:
[1] = biological target: purified recombinant mouse NAMPT protein (mouse) (UniProt Q99KQ4); assay: phage display library screen against purified recombinant NAMPT
[2] = biological target: purified recombinant mouse NAMPT protein (mouse) (UniProt Q99KQ4); assay: phage display library screen against purified recombinant mouse NAMPT

Binder	binding [1]	binding [2]
NAMPT-scFv1 (scFv) scFv: MEVQLLESGGGLVQPGGSLRLSCAASGFTFSSYAMSWVRQAPGKGLEWVSVINVPGNRTSYADSVKGRFTISRDNSKNTLYLQMNSLRAEDTAVYYCAKKTRRFDYWGQGTLVTVSSGGGGSGGGGSGGGGSTDIQMTQSPSSLSASVGDRVTITCRASQSISSYLNWYQQKPGKAPKLLIYGASVLQSGVPSRFSGSGSGTDFTLTISSLQPEDFATYYCQQRVRSPATFGQGTKVEIKRHHHHHH	binds	binds
NAMPT-scFv2 (scFv) scFv: MEVQLLESGGGLVQPGGSLRLSCAASGFAFSSYAMSWVRQAPGKGLEWVSNISGRGAKTTYADSVKGRFTISRDNSKNTLYLQMNSLRAEDTAVYYCAKTYLVFDYWGQGTLVTVSSGGGGSGGGGSGGGGSTDIQMTQSPSSLSASVGDRVTITCRASQSISSYLNWYQQKPGKAPKLLIYRASSLQSGVPSRFSGSGSGTDFTLTISSLQPEDFATYYCQQISATPTTFGQGTKVEIKRAAHHHHHH	binds	binds
